Some entries share one result that the patent states for a list of compounds.
Assay: Carrageenan induced inflammatory pain model (paw edema)
Settings: compared to carrageenan control

## O=C(NCc1ccc(C(F)(F)F)cc1)c1sc2ccccc2c1Br [Compound 7, N-(4-trifluorobenzyl)-3-bromobenzo[b]thiophene-2-carboxamide]
  Infiltration of inflammatory cells at the site of injury/inflammation (histology): decreased drastically

Reference: patent US20120016014A1, “BENZOTHIOPHENE CARBOXAMIDE COMPOUNDS, COMPOSITION AND APPLICATIONS THEREOF” (INDIAN INSTITUTE OF SCIENCE, priority 2010, published 2012)
